{"sequences": {"note": "The chains behind the UniProt entries cited, without tags or fusion partners. Where a name states a change or a piece, a line headed by the entry shows the natural chain unless it says otherwise.", "UniProt Q7VWI6": "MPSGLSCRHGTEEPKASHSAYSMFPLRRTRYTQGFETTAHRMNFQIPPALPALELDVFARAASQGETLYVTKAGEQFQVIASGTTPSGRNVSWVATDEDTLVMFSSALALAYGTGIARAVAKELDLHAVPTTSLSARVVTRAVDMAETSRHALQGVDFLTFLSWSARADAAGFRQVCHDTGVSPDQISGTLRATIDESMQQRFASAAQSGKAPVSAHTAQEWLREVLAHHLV"}, "source": "paper PMC10732220", "target": "T1, CesT family T3SS chaperone BP2265, triple FLAG-tagged (Bordetella pertussis (strain B1917)) (UniProt Q7VWI2)", "T1 sequence": "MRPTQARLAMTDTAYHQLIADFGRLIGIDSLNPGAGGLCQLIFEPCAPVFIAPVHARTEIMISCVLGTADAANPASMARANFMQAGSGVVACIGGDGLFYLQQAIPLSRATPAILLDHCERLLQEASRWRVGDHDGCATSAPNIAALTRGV", "experiment": "affinity purification with mass spectrometry; cleared lysates of B. pertussis B1917 with FLAG-tagged BP2265 (bait) or non-tagged BP2265 (control), in triplicate, on ANTI-FLAG M2 magnetic beads, about 16 h at 4 °C; lysis buffer TBS (50 mM Tris pH 7.5, 150 mM NaCl), 1 mM EDTA, 0.1% IGEPAL CA-630; washed three times in TBS; beads-bound fraction and elution fraction (100 mM glycine pH 3) both analysed by LC-MS/MS", "note": "No constants are given. Whether binding was seen depends on the method and setting. In cells and extracts the contact can be indirect. Here binding means that the protein was enriched with, or labelled near, the bait; the list need not be complete. Sequences can lack the tags named with a protein."}
{"substance": "anti-sigma factor BtrA (from UniProt Q7VWI6)", "values": [{"measurement": "binding", "result": "binds"}]}
